Results deposited as PubChem BioAssay AID1159578 (Peter MacCallum Cancer Centre, 2015).
The deposit covers about 18,000 reagents; this is a random part of them. In the full data, about 1,030 (5.7%) were called active. 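Inactive calls also include pools with fewer than 3300 nuclei, whose migration was not assessed.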 Raw values vary from plate to plate and are shown uncorrected. Not all columns of the deposit are shown.

- Screen: 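siRNA pools altering how lymphatic endothelial cells close a scratch wound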 (primary screen)
- Cell system: human lymphatic endothelial cells
- Reagent: siRNA pool against human genes, 40 nM
- Time to read-out: 48 h after transfection
- Detection: 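High-content imaging of dye-stained cells in a scratch assay measures filled wound area and nuclei per well; duplicate means given as ratio to mock and robust z-score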
- Reading the numbers: migration robust z-score: higher = faster migration into the scratch; nuclei per well: higher = more cells in the well
- Call rule: 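Migration changed when robust z exceeds 2 or falls below -2 and mean nuclei number is at least 3300; otherwise not called changed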
- Meaning of the calls: active = migration changed; inactive = no migration change, or too few cells

ALDOB (aldolase, fructose-bisphosphate B)
- migration robust z-score: 0.96
- migration class with cell-count check: migration z between -2 and 2; enough cells
- nuclei per well, duplicate mean: 4432
- activity call: inactive

ZNF254 (zinc finger protein 254)
- migration robust z-score: 1.34
- migration class with cell-count check: migration z between -2 and 2; enough cells
- nuclei per well, duplicate mean: 5656
- activity call: inactive

TRIM49B (tripartite motif containing 49B)
- migration robust z-score: 1.66
- migration class with cell-count check: migration z between -2 and 2; enough cells
- nuclei per well, duplicate mean: 5690
- activity call: inactive

GABPB2 (GA binding protein transcription factor subunit beta 2)
- migration robust z-score: -0.63
- migration class with cell-count check: migration z between -2 and 2; enough cells
- nuclei per well, duplicate mean: 6108
- activity call: inactive

SMURF1 (SMAD specific E3 ubiquitin protein ligase 1)
- migration robust z-score: 1.19
- migration class with cell-count check: migration z between -2 and 2; enough cells
- nuclei per well, duplicate mean: 5220
- activity call: inactive

IQCK (IQ motif containing K)
- migration robust z-score: -0.48
- migration class with cell-count check: migration z between -2 and 2; enough cells
- nuclei per well, duplicate mean: 5496
- activity call: inactive

SERPINI1 (serpin family I member 1)
- migration robust z-score: -1.27
- migration class with cell-count check: migration z between -2 and 2; enough cells
- nuclei per well, duplicate mean: 4384
- activity call: inactive

PCDHA7 (protocadherin alpha 7)
- migration robust z-score: -0.46
- migration class with cell-count check: migration z between -2 and 2; enough cells
- nuclei per well, duplicate mean: 6386
- activity call: inactive

ENTPD1 (ectonucleoside triphosphate diphosphohydrolase 1)
- migration robust z-score: -1.04
- migration class with cell-count check: migration z between -2 and 2; enough cells
- nuclei per well, duplicate mean: 4560
- activity call: inactive

ZZZ3 (zinc finger ZZ-type containing 3)
- migration robust z-score: -0.8
- migration class with cell-count check: migration z between -2 and 2; enough cells
- nuclei per well, duplicate mean: 6078
- activity call: inactive

PRKACB (protein kinase cAMP-activated catalytic subunit beta)
- migration robust z-score: 0.57
- migration class with cell-count check: migration z between -2 and 2; enough cells
- nuclei per well, duplicate mean: 4544
- activity call: inactive

IFT57 (intraflagellar transport 57)
- migration robust z-score: 0
- migration class with cell-count check: migration z between -2 and 2; enough cells
- nuclei per well, duplicate mean: 6624
- activity call: inactive

TNF (tumor necrosis factor)
- migration robust z-score: -1.4
- migration class with cell-count check: migration z between -2 and 2; enough cells
- nuclei per well, duplicate mean: 3746
- activity call: inactive

NBEA (neurobeachin)
- migration robust z-score: -0.71
- migration class with cell-count check: migration z between -2 and 2; enough cells
- nuclei per well, duplicate mean: 6136
- activity call: inactive

COX17 (cytochrome c oxidase copper chaperone COX17)
- migration robust z-score: 0.26
- migration class with cell-count check: migration z between -2 and 2; enough cells
- nuclei per well, duplicate mean: 6066
- activity call: inactive

PLIN4 (perilipin 4)
- migration robust z-score: 0.02
- migration class with cell-count check: migration z between -2 and 2; enough cells
- nuclei per well, duplicate mean: 5666
- activity call: inactive

Next part, starting with the last 2 of the part before.
COX17 (cytochrome c oxidase copper chaperone COX17)
- migration robust z-score: 0.26
- migration class with cell-count check: migration z between -2 and 2; enough cells
- nuclei per well, duplicate mean: 6066
- activity call: inactive

PLIN4 (perilipin 4)
- migration robust z-score: 0.02
- migration class with cell-count check: migration z between -2 and 2; enough cells
- nuclei per well, duplicate mean: 5666
- activity call: inactive

LRRC4C (leucine rich repeat containing 4C)
- migration robust z-score: -1.58
- migration class with cell-count check: migration z between -2 and 2; enough cells
- nuclei per well, duplicate mean: 6683
- activity call: inactive

TBC1D19 (TBC1 domain family member 19)
- migration robust z-score: 0.12
- migration class with cell-count check: migration z between -2 and 2; enough cells
- nuclei per well, duplicate mean: 5818
- activity call: inactive

LRRC31 (leucine rich repeat containing 31)
- migration robust z-score: 0.68
- migration class with cell-count check: migration z between -2 and 2; enough cells
- nuclei per well, duplicate mean: 5187
- activity call: inactive

RGCC (regulator of cell cycle)
- migration robust z-score: -0.2
- migration class with cell-count check: migration z between -2 and 2; enough cells
- nuclei per well, duplicate mean: 5274
- activity call: inactive

EVI2B (ecotropic viral integration site 2B)
- migration robust z-score: 0.32
- migration class with cell-count check: migration z between -2 and 2; enough cells
- nuclei per well, duplicate mean: 5445
- activity call: inactive

SYCE1 (synaptonemal complex central element protein 1)
- migration robust z-score: 0.16
- migration class with cell-count check: migration z between -2 and 2; enough cells
- nuclei per well, duplicate mean: 6769
- activity call: inactive

TELO2 (telomere maintenance 2)
- migration robust z-score: 1.1
- migration class with cell-count check: migration z between -2 and 2; enough cells
- nuclei per well, duplicate mean: 5778
- activity call: inactive

WDR93 (WD repeat domain 93)
- migration robust z-score: 0.76
- migration class with cell-count check: migration z between -2 and 2; enough cells
- nuclei per well, duplicate mean: 4100
- activity call: inactive

CEP95 (centrosomal protein 95)
- migration robust z-score: 0.22
- migration class with cell-count check: migration z between -2 and 2; enough cells
- nuclei per well, duplicate mean: 4314
- activity call: inactive

ACHE (acetylcholinesterase (Yt blood group))
- migration robust z-score: 1.14
- migration class with cell-count check: migration z between -2 and 2; enough cells
- nuclei per well, duplicate mean: 6323
- activity call: inactive

NOSIP (nitric oxide synthase interacting protein)
- migration robust z-score: -0.73
- migration class with cell-count check: migration z between -2 and 2; enough cells
- nuclei per well, duplicate mean: 5310
- activity call: inactive
